Experimental data reported in publication PMC11948057.

By UniProt entry, the sequences of proteins in these tests, tags left out. Where a name states a change or a piece, a line headed by the entry shows the natural chain unless it says otherwise.
UniProt Q336P5: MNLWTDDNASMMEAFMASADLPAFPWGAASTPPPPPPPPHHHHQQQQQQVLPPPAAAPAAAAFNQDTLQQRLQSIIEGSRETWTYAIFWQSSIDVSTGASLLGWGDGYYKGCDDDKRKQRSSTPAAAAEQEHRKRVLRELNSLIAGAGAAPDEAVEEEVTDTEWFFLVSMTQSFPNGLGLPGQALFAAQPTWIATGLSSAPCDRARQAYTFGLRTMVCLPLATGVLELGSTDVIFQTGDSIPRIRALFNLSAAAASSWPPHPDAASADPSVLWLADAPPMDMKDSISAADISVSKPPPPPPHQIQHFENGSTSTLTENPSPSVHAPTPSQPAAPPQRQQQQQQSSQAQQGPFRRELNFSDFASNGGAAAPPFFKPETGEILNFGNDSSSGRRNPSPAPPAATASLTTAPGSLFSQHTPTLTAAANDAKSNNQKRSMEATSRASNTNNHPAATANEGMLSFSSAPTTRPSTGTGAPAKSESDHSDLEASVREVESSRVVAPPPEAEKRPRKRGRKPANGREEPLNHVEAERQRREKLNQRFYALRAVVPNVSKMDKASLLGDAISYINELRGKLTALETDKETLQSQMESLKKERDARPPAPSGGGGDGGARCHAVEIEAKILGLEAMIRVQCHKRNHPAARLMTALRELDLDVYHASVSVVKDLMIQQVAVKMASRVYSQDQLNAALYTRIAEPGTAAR
UniProt P05804: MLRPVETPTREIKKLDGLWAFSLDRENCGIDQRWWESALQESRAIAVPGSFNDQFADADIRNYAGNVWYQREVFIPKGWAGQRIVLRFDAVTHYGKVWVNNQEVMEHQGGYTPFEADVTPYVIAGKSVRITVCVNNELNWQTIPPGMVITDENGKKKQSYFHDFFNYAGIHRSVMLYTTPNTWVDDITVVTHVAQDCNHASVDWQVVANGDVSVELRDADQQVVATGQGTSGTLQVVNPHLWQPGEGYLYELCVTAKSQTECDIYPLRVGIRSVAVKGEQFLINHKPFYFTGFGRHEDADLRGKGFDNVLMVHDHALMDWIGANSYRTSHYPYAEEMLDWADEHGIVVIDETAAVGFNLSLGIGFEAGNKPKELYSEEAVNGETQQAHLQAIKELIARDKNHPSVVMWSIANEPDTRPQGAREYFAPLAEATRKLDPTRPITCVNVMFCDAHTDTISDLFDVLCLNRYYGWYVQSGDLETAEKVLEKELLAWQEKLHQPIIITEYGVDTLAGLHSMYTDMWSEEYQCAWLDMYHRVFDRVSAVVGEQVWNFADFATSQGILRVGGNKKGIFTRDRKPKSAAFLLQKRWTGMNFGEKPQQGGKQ
UniProt Q6K3B2: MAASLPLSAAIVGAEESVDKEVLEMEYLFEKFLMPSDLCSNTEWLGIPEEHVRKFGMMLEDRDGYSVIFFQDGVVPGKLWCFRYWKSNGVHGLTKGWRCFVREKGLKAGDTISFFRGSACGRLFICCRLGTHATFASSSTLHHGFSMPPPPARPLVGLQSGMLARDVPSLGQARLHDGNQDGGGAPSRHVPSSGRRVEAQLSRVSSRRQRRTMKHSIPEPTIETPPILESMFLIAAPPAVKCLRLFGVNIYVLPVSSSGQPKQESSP
UniProt Q10QW3: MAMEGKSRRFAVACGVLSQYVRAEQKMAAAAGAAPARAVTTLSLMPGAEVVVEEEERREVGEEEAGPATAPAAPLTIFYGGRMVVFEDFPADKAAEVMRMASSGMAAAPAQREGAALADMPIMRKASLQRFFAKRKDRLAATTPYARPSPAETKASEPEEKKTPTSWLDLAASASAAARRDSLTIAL
UniProt Q8GRS2: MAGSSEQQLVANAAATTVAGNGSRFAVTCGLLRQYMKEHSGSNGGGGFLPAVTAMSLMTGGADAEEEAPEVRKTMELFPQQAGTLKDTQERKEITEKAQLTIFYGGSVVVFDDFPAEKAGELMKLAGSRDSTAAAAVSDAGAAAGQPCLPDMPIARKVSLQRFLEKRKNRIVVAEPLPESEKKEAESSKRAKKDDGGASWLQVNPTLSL
UniProt Q8GSI0: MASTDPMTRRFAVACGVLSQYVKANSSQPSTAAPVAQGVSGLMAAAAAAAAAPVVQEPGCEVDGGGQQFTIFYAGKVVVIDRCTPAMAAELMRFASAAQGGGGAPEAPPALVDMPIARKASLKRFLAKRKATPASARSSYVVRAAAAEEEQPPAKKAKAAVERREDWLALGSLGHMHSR
UniProt Q6ES51: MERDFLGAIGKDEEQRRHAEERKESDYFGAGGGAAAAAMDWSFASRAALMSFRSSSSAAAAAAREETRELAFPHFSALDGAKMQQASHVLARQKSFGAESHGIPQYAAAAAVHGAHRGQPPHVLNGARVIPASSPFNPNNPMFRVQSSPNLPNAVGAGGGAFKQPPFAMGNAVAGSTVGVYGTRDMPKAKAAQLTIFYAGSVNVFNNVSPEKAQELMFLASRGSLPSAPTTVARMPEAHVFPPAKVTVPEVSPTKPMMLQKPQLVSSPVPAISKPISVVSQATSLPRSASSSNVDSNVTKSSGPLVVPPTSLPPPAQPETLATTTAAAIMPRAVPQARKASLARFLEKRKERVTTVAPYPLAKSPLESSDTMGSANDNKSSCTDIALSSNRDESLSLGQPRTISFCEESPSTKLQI
UniProt Q6ZJU3: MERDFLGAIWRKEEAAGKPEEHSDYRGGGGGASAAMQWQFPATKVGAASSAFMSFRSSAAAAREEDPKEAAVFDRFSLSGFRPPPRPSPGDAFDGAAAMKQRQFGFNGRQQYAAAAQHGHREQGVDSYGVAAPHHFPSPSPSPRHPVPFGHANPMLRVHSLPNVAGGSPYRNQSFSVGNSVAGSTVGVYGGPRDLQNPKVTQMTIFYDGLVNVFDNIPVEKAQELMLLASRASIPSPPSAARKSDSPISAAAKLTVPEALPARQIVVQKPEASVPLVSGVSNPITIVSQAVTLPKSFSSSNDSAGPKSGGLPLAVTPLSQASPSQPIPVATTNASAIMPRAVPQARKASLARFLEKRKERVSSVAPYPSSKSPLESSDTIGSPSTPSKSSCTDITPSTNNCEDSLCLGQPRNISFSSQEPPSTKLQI

Assays:
[1] = target: OsMYC2 (endogenous in rice) (rice (endogenous in rice plants)) (UniProt Q336P5); assay: co-IP; OsRAV15-2# transgenic rice plants; precipitated with Protein A/G OsMYC2 antibody beads; blots with anti-OsMYC2 and anti-MYC
[2] = target: OsMYC2 (endogenous in rice) (rice (endogenous in rice plants)) (UniProt Q336P5); assay: co-IP; competitive co-IP in rice: hybrid plants OsRAV15-2#/P2-OX, OsRAV15-2#/SP8-OX and OsRAV15-2#/M-OX
GUS-nYFP = GUS-nYFP (UniProt P05804); assay: split reporter; BiFC: cYFP and nYFP fusions co-infiltrated into N. benthamiana leaves, confocal microscopy at 48 h
OsMYC2-nYFP (rice) = OsMYC2-nYFP (rice) (UniProt Q336P5); assay: as above
OsRAV15-GFP (rice) [3] = target: OsRAV15-GFP (rice) (UniProt Q6K3B2); assay: co-IP; co-IP of OsMYC2 and OsRAV15 with or without OsJAZ4 (Figure S15)
OsRAV15-FLAG (rice) = OsRAV15-FLAG (rice) (UniProt Q6K3B2); assay: co-IP; competitive co-IP: components mixed in equal volumes and infiltrated into N. benthamiana leaves with or without P2-GFP, SP8-GFP or M-GFP (HA-GFP as control); 48 hpi; FLAG beads
OsRAV15-GFP (rice) [4] = target: OsRAV15-GFP (rice) (UniProt Q6K3B2); assay: co-IP; transient co-expression in N. benthamiana leaves; precipitated with FLAG or GFP beads, about 2 h at 4 °C, washed three times with 1 x PBS; immunoblot
BD-OsJAZ10 (rice) = BD-OsJAZ10 (rice) (UniProt Q10QW3); assay: two-hybrid; baits in pGBKT7 (BD), prey AD-OsRAV15 in pGADT7, yeast AH109; growth on SD/-Leu/-Trp/-His/-Ade, 3 days at 30 °C
BD-OsJAZ11 (rice) = BD-OsJAZ11 (rice) (UniProt Q8GRS2); assay: as above
BD-OsJAZ9 (rice) = BD-OsJAZ9 (rice) (UniProt Q8GSI0); assay: as above
BD-OsJAZ4 (rice) = BD-OsJAZ4 (rice) (UniProt Q6ES51); assay: as above
BD-OsJAZ3 (rice) = BD-OsJAZ3 (rice) (UniProt Q6ZJU3); assay: as above

OsRAV15-MYC in transgenic rice (OsRAV15-2#) (from UniProt Q6K3B2)
binding [1]: binds | binding [2]: binds

cYFP-OsRAV15 (from UniProt Q6K3B2)
binding (GUS-nYFP): no binding | binding (OsMYC2-nYFP (rice)): binds

OsMYC2-MYC (from UniProt Q336P5 1-699)
binding (OsRAV15-GFP (rice) [3]): binds | binding (OsRAV15-FLAG (rice)): binds | binding (OsRAV15-GFP (rice) [4]): binds

AD-OsRAV15 (from UniProt Q6K3B2)
binding (BD-OsJAZ10 (rice)): binds | binding (BD-OsJAZ11 (rice)): binds | binding (BD-OsJAZ9 (rice)): binds | binding (BD-OsJAZ4 (rice)): binds | binding (BD-OsJAZ3 (rice)): binds

GUS-MYC (from UniProt P05804 1-603)
binding (OsRAV15-GFP (rice) [4]): no binding

No constants are given. Whether binding was seen depends on the method and setting. For some of these results: A result given as binding can be weak or reduced; the word gives no strength. For some of these results: Binding seen in cells or lysates may run through a third protein.
